Source: patent publication US12336537B2, “Fungicidal compositions” (SYNGENTA CROP PROTECTION AG, priority 2020, dated 2025)
Some of these results come from one statement about several compounds together.

Tested on: Phaeosphaeria nodorum (Septoria nodorum)
Assay: Example A5: Phaeosphaeria nodorum (Septoria nodorum) / wheat / leaf disc preventative (glume blotch)
Assay type: in vivo
Details: 200 ppm, wheat leaf segments, compared to untreated control

Cc1sc(N(C#N)c2cc(F)nc(F)c2)nc1C(=O)NCC(C)C [X.15, 2-[cyano-(2,6-difluoro-4-pyridyl)amino]-N-isobutyl-5-methyl-thiazole-4-carboxamide]
control of Phaeosphaeria nodorum: at least 80%
